From the supplement of paper PMC12819154, “High-throughput peptide-centric local stability assay extends protein–ligand identification to membrane proteins, tissues and bacteria” (Nature Structural & Molecular Biology, 2025)
This is one part of the list. Small differences around the control level are noise.

The chains behind the UniProt entries cited, without tags or fusion partners. Where a name states a change or a piece, a line headed by the entry shows the natural chain unless it says otherwise.
UniProt P70302, whole entry: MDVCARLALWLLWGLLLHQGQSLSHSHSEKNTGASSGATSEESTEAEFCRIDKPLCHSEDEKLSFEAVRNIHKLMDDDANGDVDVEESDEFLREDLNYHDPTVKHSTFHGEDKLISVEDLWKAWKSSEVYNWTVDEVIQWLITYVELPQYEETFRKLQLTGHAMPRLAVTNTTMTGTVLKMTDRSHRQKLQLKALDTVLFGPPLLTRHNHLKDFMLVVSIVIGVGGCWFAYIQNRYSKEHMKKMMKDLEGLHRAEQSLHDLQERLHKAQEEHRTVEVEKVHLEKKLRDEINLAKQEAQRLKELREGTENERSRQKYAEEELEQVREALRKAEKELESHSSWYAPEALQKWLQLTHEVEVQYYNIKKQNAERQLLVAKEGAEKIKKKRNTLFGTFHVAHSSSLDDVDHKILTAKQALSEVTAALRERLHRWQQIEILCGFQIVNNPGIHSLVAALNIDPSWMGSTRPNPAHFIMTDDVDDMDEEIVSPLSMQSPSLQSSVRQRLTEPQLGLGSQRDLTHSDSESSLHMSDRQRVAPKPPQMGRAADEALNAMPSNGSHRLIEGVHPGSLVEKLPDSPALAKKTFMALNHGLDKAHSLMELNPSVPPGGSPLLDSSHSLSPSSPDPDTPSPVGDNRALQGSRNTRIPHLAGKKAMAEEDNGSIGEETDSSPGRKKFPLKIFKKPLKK
UniProt P59222: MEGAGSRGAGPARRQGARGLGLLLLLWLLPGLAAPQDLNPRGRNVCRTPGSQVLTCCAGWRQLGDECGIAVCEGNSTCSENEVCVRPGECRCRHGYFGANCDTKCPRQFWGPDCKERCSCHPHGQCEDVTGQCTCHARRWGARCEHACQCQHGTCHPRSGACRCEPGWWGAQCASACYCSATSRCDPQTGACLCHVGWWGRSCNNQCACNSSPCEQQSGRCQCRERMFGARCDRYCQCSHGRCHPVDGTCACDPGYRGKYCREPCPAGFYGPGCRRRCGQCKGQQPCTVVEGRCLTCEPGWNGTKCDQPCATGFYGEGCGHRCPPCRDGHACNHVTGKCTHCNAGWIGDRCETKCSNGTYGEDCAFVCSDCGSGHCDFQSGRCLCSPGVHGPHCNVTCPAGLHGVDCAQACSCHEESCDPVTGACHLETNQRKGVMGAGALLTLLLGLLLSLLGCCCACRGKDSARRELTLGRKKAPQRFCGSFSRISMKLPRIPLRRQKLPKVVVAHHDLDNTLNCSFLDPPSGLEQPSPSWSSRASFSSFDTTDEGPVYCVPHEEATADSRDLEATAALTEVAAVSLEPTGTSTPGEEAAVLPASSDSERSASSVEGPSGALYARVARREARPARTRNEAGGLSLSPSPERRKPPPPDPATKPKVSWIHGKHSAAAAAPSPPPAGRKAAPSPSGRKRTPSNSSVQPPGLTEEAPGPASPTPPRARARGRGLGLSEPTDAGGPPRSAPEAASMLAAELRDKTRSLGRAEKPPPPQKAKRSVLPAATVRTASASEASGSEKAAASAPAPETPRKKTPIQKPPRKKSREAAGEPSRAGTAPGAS
UniProt P70266: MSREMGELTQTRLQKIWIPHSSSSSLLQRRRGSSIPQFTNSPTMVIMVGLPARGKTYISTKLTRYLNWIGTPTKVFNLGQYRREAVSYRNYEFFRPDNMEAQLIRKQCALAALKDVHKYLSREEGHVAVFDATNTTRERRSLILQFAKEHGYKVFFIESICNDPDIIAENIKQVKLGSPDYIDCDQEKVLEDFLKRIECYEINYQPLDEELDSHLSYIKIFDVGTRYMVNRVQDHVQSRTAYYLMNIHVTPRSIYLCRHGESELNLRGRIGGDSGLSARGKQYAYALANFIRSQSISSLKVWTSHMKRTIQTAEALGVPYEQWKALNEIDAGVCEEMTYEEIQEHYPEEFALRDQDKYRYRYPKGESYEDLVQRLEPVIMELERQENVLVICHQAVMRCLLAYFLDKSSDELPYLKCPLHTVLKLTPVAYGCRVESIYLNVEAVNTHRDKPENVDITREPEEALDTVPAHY
UniProt P59325, whole entry: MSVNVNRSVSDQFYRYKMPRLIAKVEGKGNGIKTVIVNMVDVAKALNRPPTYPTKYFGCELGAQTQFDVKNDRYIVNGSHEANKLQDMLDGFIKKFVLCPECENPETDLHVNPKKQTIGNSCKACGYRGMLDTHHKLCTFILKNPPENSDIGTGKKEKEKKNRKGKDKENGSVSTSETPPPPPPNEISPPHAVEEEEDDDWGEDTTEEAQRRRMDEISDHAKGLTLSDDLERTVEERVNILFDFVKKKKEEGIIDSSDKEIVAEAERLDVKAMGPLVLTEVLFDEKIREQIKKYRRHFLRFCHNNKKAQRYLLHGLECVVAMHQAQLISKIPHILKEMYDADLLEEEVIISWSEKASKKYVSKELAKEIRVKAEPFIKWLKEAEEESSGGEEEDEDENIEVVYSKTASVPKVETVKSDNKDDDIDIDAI
UniProt P63300, whole entry: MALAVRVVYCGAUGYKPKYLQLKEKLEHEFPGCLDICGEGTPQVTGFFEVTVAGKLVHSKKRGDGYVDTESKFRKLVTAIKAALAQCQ
UniProt P59242: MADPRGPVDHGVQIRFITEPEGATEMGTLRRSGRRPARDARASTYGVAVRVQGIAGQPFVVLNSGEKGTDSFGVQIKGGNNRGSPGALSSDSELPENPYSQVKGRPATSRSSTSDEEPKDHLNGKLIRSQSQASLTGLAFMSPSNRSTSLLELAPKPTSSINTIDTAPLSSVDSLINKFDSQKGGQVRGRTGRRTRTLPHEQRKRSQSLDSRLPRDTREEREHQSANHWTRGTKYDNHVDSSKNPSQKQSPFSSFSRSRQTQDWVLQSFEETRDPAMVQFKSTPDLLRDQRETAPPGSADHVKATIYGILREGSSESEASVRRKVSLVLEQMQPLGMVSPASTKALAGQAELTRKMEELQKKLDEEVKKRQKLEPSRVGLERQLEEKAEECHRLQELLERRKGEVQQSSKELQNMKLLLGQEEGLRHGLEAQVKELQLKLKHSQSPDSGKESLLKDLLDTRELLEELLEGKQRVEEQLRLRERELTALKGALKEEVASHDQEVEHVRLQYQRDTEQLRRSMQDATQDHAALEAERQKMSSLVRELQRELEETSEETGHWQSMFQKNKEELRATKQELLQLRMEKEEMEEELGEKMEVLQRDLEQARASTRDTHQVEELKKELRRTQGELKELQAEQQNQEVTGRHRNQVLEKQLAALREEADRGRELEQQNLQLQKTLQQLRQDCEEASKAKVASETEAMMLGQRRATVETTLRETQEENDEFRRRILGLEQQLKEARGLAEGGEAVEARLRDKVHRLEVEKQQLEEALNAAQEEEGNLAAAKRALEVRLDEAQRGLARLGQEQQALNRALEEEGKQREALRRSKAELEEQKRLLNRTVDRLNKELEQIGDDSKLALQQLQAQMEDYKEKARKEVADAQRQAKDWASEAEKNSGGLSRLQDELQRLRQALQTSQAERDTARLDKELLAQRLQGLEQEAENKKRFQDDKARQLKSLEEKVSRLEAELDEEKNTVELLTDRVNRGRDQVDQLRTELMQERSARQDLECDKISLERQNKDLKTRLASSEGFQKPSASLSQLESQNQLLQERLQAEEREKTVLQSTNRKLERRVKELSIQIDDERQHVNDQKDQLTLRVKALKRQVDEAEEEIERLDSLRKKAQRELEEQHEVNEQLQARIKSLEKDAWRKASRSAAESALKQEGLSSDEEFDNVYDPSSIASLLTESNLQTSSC
UniProt P97493: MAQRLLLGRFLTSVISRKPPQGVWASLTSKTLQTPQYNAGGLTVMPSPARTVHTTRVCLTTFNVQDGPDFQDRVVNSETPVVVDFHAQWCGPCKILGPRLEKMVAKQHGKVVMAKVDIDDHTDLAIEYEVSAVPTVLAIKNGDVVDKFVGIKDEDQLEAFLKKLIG
UniProt P58283: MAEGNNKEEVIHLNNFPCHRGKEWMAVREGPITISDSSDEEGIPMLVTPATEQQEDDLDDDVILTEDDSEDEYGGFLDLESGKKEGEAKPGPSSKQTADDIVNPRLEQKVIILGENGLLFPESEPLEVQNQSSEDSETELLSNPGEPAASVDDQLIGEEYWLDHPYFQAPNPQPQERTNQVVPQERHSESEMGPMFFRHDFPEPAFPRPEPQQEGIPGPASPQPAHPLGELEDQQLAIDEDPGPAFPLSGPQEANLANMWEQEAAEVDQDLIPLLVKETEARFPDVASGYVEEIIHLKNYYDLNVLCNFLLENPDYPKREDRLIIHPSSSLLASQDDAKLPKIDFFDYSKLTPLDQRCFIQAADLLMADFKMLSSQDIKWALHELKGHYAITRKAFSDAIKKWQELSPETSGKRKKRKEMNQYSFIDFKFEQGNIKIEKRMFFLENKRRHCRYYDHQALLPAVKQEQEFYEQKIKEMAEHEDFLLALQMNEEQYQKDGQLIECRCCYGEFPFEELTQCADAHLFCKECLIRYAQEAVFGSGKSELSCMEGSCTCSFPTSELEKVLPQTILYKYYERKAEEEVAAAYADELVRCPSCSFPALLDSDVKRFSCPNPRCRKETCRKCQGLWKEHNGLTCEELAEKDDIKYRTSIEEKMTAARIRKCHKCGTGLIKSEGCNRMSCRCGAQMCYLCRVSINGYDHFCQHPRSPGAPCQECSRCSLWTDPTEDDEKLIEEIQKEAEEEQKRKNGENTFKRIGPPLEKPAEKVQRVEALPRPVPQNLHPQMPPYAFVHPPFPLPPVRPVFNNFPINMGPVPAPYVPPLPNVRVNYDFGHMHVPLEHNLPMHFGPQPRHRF
UniProt P80317, whole entry: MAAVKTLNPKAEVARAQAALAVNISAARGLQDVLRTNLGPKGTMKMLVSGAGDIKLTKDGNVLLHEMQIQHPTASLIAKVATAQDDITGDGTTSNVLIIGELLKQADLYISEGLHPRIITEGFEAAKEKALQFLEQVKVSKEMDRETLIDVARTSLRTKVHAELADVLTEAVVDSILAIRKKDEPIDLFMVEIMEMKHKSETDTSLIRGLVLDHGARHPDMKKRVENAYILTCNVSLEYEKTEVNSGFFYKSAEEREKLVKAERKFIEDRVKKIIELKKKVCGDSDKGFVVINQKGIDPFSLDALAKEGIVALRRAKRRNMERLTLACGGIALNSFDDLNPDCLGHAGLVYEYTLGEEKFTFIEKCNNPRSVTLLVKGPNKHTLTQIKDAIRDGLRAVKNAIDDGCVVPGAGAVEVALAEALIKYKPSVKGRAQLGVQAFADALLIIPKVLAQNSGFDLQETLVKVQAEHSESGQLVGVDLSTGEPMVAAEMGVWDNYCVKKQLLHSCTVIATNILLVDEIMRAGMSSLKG
UniProt P62075: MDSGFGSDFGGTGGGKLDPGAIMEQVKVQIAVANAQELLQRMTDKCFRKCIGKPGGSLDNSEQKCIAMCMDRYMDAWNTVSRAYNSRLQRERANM
UniProt P70274, whole entry: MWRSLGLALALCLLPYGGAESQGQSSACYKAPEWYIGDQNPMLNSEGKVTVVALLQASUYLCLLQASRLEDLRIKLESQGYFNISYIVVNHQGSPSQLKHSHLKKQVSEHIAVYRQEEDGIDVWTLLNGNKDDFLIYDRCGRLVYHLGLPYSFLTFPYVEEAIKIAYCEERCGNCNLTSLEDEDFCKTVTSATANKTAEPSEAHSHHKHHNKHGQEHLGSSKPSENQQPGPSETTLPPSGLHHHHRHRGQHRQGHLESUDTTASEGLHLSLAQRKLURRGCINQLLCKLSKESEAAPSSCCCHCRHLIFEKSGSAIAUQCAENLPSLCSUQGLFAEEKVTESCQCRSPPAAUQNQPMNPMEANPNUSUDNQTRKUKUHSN
UniProt P62774, whole entry: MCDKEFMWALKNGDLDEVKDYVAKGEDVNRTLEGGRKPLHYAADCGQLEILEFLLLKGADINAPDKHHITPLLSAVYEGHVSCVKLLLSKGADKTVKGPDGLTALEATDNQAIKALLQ
UniProt P63017, whole entry: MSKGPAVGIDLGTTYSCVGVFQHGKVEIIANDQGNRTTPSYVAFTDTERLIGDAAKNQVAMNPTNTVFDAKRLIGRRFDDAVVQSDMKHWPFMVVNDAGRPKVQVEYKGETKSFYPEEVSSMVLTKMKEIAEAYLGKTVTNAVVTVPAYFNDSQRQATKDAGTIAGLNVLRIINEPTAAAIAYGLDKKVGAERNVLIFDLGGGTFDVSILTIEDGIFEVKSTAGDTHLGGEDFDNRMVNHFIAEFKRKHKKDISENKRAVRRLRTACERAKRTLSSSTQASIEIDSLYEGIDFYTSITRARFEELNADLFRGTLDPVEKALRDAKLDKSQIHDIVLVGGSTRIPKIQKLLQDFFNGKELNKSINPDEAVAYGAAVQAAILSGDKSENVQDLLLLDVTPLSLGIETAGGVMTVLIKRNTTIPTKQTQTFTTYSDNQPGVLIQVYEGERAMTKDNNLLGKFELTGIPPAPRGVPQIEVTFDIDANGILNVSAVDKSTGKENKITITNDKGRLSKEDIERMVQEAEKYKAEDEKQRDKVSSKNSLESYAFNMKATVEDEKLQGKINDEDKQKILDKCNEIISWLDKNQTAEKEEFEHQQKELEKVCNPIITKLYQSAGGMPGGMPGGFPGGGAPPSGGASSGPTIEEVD

compound: CN[C@@H]1C[C@H]2O[C@@](C)([C@@H]1OC)n1c3ccccc3c3c4c(c5c6ccccc6n2c5c31)C(=O)NC4 [staurosporine]; test: log2 fold change of pooled soluble protein (PISA), ligand vs vehicle (log2 ratio); higher = more thermally stabilized; details: ligand concentration: 20 uM; assay format: PISA pool 52.9/55.5/58.6 C

Target	log2 fold change of pooled soluble protein
UniProt P70302	0.0656
UniProt P70429	-0.0126
UniProt P70372	-0.151
UniProt P70315	-0.149
UniProt P97314	-0.0276
P63271;Q9Z199	-0.243
UniProt P59222	0.0974
UniProt P81117	-0.123
UniProt P97461	-0.0749
UniProt P59017	-0.0603
UniProt P70266	-0.107
UniProt P97315	0.102
UniProt P59325	-0.0654
UniProt P97431	0.0991
UniProt P62862	0.0949
UniProt P70677	-0.112
UniProt P63101	-0.139
UniProt P57746	0.0638
UniProt P70336	0.594

Some of the entries so far, in markdown.

| Target | log2 fold change of pooled soluble protein |
| --- | --- |
| P63271;Q9Z199 | -0.243 |
| UniProt P59222 | 0.0974 |

Next entries:

Target	log2 fold change of pooled soluble protein
P60710;P63260	-0.107
UniProt P60487	0.00361
UniProt P70202	-0.321
UniProt P63300	-0.0917
UniProt P97370	0.0239
UniProt P97360	-0.0548
UniProt P59242	-0.0721
UniProt P97493	0.504
UniProt P56873	-0.0305
UniProt P58283	-0.152
UniProt P80317	0.0195
UniProt P57780	0.124
UniProt P62075	-0.0134
UniProt P70274	-0.044
UniProt P62774	0.176
UniProt P63017	-0.114
UniProt P97298	0.0678
UniProt P80316	-0.027
